Results are given in words; binding and its absence hold for the method and conditions named. In cells and extracts the contact can be indirect. Binding calls can cover weak binding; strength is not graded here. Sequences can lack the tags named with a protein.

This test concerns the target T1, oxysterol-binding protein-related protein 4 (ORP4), flag-tagged (UniProt Q969R2).
T1 sequence: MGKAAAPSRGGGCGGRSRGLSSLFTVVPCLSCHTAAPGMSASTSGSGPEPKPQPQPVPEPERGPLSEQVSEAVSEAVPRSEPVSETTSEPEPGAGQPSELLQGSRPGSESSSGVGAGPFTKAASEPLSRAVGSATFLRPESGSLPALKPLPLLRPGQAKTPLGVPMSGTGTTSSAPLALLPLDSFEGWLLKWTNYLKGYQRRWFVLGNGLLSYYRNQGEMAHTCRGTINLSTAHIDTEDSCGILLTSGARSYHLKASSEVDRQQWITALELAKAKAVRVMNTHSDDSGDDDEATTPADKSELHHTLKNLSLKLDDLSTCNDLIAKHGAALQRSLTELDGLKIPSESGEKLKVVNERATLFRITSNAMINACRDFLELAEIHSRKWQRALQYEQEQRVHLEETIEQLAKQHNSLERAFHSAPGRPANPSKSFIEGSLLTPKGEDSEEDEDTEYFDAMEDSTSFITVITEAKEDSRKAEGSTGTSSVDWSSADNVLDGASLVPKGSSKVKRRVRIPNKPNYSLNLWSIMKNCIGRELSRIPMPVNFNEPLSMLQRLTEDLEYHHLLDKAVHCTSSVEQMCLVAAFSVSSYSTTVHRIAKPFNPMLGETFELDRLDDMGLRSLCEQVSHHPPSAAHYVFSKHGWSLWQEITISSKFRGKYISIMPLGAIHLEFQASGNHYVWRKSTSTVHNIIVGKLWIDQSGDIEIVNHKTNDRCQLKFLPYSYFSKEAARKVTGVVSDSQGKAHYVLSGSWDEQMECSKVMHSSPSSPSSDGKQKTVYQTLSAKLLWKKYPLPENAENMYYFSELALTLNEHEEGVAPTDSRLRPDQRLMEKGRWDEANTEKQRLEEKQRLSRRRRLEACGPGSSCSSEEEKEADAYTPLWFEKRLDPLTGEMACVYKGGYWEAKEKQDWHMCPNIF
As to the kind of experiment: co-IP; 293T cells transfected with flag-ORP4 plus myc-NS5B and/or HA-hVAP-A; lysates prepared 48 hr post transfection; immunoprecipitated with anti-flag antibody; Western blot with anti-myc or anti-HA antibody.

In the case of “HCV NS5B (RNA-dependent RNA polymerase), myc-tagged (hepatitis C virus (strain not stated)) (enzyme)”, the binding entry is given as “binds”.
